No constants are given. Whether binding was seen depends on the method and setting. Binding seen in cells or lysates may run through a third protein. Here binding means that the protein was enriched with, or labelled near, the bait; the list need not be complete. Sequences can lack the tags named with a protein.
B1: cysteine-rich RK 2 (CRK2) (receptor, UniProt Q9CAL3 30-649)
chain: DARARAVKVTCSPLLEHNETAYVPNFVATMEKISTQVQTSGFGVALTGTGPDANYGLAQCYGDLPLNDCVLCYAEARTMLPQCYPQNGGRIFLDGCFMRAENYSFYNEYKGPEDSIVCGNTTRKNKTFGDAVRQGLRNAVTEASGTGGYARASAKAGESESESAFVLANCWRTLSPDSCKQCLENASASVVKGCLPWSEGRALHTGCFLRYSDQDFLNKIPRNGRSRGSVVVIVVSVLSSVVVFMIGVAVSVYICKRRTIKRKRRGSKDVEKMAKTLKDSSLNFKYSTLEKATGSFDNANKLGQGGFGTVYKGVLPDGRDIAVKRLFFNNRHRATDFYNEVNMISTVEHKNLVRLLGCSCSGPESLLVYEYLQNKSLDRFIFDVNRGKTLDWQRRYTIIVGTAEGLVYLHEQSSVKIIHRDIKASNILLDSKLQAKIADFGLARSFQDDKSHISTAIAGTLGYMAPEYLAHGQLTEMVDVYSFGVLVLEIVTGKQNTKSKMSDYSDSLITEAWKHFQSGELEKIYDPNLDWKSQYDSHIIKKEIARVVQIGLLCTQEIPSLRPPMSKLLHMLKNKEEVLPLPSNPPFMDERVMELRDGSDGDSAGCASLATVSQSSFYGR
B2: plasma membrane calcium ATPase ACA10 (enzyme, UniProt Q9SZR1 1-1069)
chain: MSGQFNNSPRGEDKDVEAGTSSFTEYEDSPFDIASTKNAPVERLRRWRQAALVLNASRRFRYTLDLKREEDKKQMLRKMRAHAQAIRAAHLFKAAASRVTGIASPLPTPGGGDFGIGQEQIVSISRDQNIGALQELGGVRGLSDLLKTNLEKGIHGDDDDILKRKSAFGSNTYPQKKGRSFWRFVWEASQDLTLIILIVAAVASLALGIKTEGIEKGWYDGISIAFAVLLVIVVTATSDYRQSLQFQNLNEEKRNIRLEVTRDGRRVEISIYDIVVGDVIPLNIGDQVPADGVLVAGHSLAVDESSMTGESKIVQKNSTKHPFLMSGCKVADGNGTMLVTGVGVNTEWGLLMASVSEDNGGETPLQVRLNGVATFIGIVGLTVAGVVLFVLVVRYFTGHTKNEQGGPQFIGGKTKFEHVLDDLVEIFTVAVTIVVVAVPEGLPLAVTLTLAYSMRKMMADKALVRRLSACETMGSATTICSDKTGTLTLNEMTVVECYAGLQKMDSPDSSSKLPSAFTSILVEGIAHNTTGSVFRSESGEIQVSGSPTERAILNWAIKLGMDFDALKSESSAVQFFPFNSEKKRGGVAVKSPDSSVHIHWKGAAEIVLGSCTHYMDESESFVDMSEDKMGGLKDAIDDMAARSLRCVAIAFRTFEADKIPTDEEQLSRWELPEDDLILLAIVGIKDPCRPGVKNSVLLCQQAGVKVRMVTGDNIQTAKAIALECGILASDSDASEPNLIEGKVFRSYSEEERDRICEEISVMGRSSPNDKLLLVQSLKRRGHVVAVTGDGTNDAPALHEADIGLAMGIQGTEVAKEKSDIIILDDNFESVVKVVRWGRSVYANIQKFIQFQLTVNVAALVINVVAAISAGEVPLTAVQLLWVNLIMDTLGALALATEPPTDHLMDRAPVGRREPLITNIMWRNLFIQAMYQVTVLLILNFRGISILHLKSKPNAERVKNTVIFNAFVICQVFNEFNARKPDEINIFRGVLRNHLFVGIISITIVLQVVIVEFLGTFASTTKLDWEMWLVCIGIGSISWPLAVIGKLIPVPETPVSQYFRINRWRRNSSG
B3: lipase/lipoxygenase plat domain protein 2 (AT2G22170) (protein, UniProt Q9SIE7 26-183)
chain: DDEADCVYTFFLRTGSTFKAGTDSIISARVYDKYGDYIGIRNLEAWGGLMGPGYNYYERGNLDIFSGKAPCLPSPVCSLNLTSDGSGDHHGWYVNYVEVTTAGVHAKCSYQSFDVEQWLASDTSPYELSAVRNNCPVSLRESVGRVGSEIRKTLSWIV
B4: an LRR-RK (AT3G02880) (receptor, UniProt Q9M8T0 24-627)
chain: SDLESDRRALLAVRNSVRGRPLLWNMSASSPCNWHGVHCDAGRVTALRLPGSGLFGSLPIGGIGNLTQLKTLSLRFNSLSGPIPSDFSNLVLLRYLYLQGNAFSGEIPSLLFTLPSIIRINLGENKFSGRIPDNVNSATRLVTLYLERNQLSGPIPEITLPLQQFNVSSNQLNGSIPSSLSSWPRTAFEGNTLCGKPLDTCEAESPNGGDAGGPNTPPEKKDSDKLSAGAIVGIVIGCVVGLLLLLLILFCLCRKRKKEENVPSRNVEAPVAAATSSAAIPKETVVVVPPAKATGSESGAVNKDLTFFVKSFGEFDLDGLLKASAEVLGKGTVGSSYKASFEHGLVVAVKRLRDVVVPEKEFRERLHVLGSMSHANLVTLIAYYFSRDEKLLVFEYMSKGSLSAILHGNKGNGRTPLNWETRAGIALGAARAISYLHSRDGTTSHGNIKSSNILLSDSYEAKVSDYGLAPIISSTSAPNRIDGYRAPEITDARKISQKADVYSFGVLILELLTGKSPTHQQLNEEGVDLPRWVQSVTEQQTPSDVLDPELTRYQPEGNENIIRLLKIGMSCTAQFPDSRPSMAEVTRLIEEVSHSSGSPNPVSD
B5: N-TERMINAL-TRANSMEMBRANE C2 DOMAIN PROTEINS TYPE 4/Ca2+-… LIPID-BINDING PROTEIN 1/SYNAPTOTAGMIN 7 (AT3G61050) (protein, UniProt Q9LEX1 1-510)
chain: MGLISGILFGIIFGVALMAGWSRMMTHRSSKRVAKAVDMKLLGSLSRDDLKKICGDNFPQWISFPAFEQVKWLNKLLSKMWPYIAEAATMVIRDSVEPLLEDYRPPGITSLKFSKLTLGNVAPKIEGIRVQSFKEGQVTMDVDLRWGGDPNIVLGVTALVASIPIQLKDLQVFTVARVIFQLADEIPCISAVVVALLAEPKPRIDYTLKAVGGSLTAIPGLSDMIDDTVDTIVKDMLQWPHRIVVPIGGIPVDLSDLELKPQGKLIVTVVKATNLKNKELIGKSDPYATIYIRPVFKYKTKAIENNLNPVWDQTFELIAEDKETQSLTVEVFDKDVGQDERLGLVKLPLSSLEAGVTKELELNLLSSLDTLKVKDKKDRGSITLKVHYHEFNKEEQMAALEDEKKIMEERKRLKEAGVIGSTMDAVGMVGSGLGAGVGMVGTGIGTGVGLVGSGVSSGVGMVGSGFGAVGSGLSKAGRFMGRTITGQSSKRSGSSTPVNTVPENDGAKQQ
B6: HAP13 (protein, UniProt O22715 1-428)
chain: MAGAASALFLLDIKGRVLVWRDYRGDVSAAQAERFFTKLIEKEGDSQSNDPVAYDNGVTYMFVQHSNVYLMIASRQNCNAASLLFFLHRVVDVFKHYFEELEEESLRDNFVVVYELLDEMMDFGYPQYTEARILSEFIKTDAYRMEVTQRPPMAVTNAVSWRSEGIQYKKNEVFLDVIENVNILVNSNGQIVRSDVVGALKMRTYLTGMPECKLGLNDRVLLEAQGRATKGKAIDLEDIKFHQCVRLARFENDRTISFIPPDGAFDLMTYRLSTQVKPLIWVEAQIESHSRSRVEMLIKARSQFKERSTATNVEIELPVPTDASNPTVRTSLGSASYAPEKDALVWKIKSFPGNKEYMLRAEFHLPSITAEEATPERKAPIRVKFEIPYFTVSGIQVRYLKIIEKSGYQALPWVRYITMAGEYELRLV
B7: AP4M (protein, UniProt Q9SB50 1-451)
chain: MMISQFFVLSQRGDNIVFRDYRAEVPKGSTETFFRKVKFWKEDGNAEAPPIFNVDGVNYFHVKVVGLYFVATTRVNVSPSLVLELLQRIARVIKDYLGVLNEDSFRKNFVLVYELLDEVIDFGYVQTTSTEVLKSYIFNEPIVVSPARLQPIDPAAIFTQGAKRMPGTAVTKSVVANDPGGRRREEIFVDIIEKISVTFSSSGYILTSEIDGTIQMKSYLSGNPEIRLALNEDLNIGRGGRSVYDYRSSSGSGVILDDCNFHESVRLDSFDSDRTLSLVPPDGEFPVMNYRMTQEFKPPFHVNTLIEEAGRLKAEVIIKIRAEFPSDIIANTITVQMPLPNYTSRASFELEPGAAGQRTDFKESNKMLEWNLKKIVGGGEHTLRAKLTFSQEFHGNITKEAGPVSMTFTIPMYNVSKLQVKYLQIAKKSSSYNPYRWVRYVTQANSYVARI
B8: BAK1 (receptor, UniProt Q94F62 26-615)
chain: NAEGDALSALKNSLADPNKVLQSWDATLVTPCTWFHVTCNSDNSVTRVDLGNANLSGQLVMQLGQLPNLQYLELYSNNITGTIPEQLGNLTELVSLDLYLNNLSGPIPSTLGRLKKLRFLRLNNNSLSGEIPRSLTAVLTLQVLDLSNNPLTGDIPVNGSFSLFTPISFANTKLTPLPASPPPPISPTPPSPAGSNRITGAIAGGVAAGAALLFAVPAIALAWWRRKKPQDHFFDVPAEEDPEVHLGQLKRFSLRELQVASDNFSNKNILGRGGFGKVYKGRLADGTLVAVKRLKEERTQGGELQFQTEVEMISMAVHRNLLRLRGFCMTPTERLLVYPYMANGSVASCLRERPESQPPLDWPKRQRIALGSARGLAYLHDHCDPKIIHRDVKAANILLDEEFEAVVGDFGLAKLMDYKDTHVTTAVRGTIGHIAPEYLSTGKSSEKTDVFGYGVMLLELITGQRAFDLARLANDDDVMLLDWVKGLLKEKKLEALVDVDLQGNYKDEEVEQLIQVALLCTQSSPMERPKMSEVVRMLEGDGLAERWEEWQKEEMFRQDFNYPTHHPAVSGWIIGDSTSQIENEYPSGPR
B9: IOS1 (receptor, UniProt Q9C8I6 24-894)
chain: QDQSGFISLDCGSPRETSFREKTTNITYISDANFINTGVGGSIKQGYRTQFQQQTWNLRSFPQGIRNCYTLNLTIGDEYLIRANFLHGGYDDKPSTQFELYLGPNLWSTVTTTNETEASIFEMIHILTTDRLQICLVKTGNATPFISALELRKLMNTTYLTRQGSLQTFIRADVGATVNQGYRYGIDVFDRVWTPYNFGNWSQISTNQSVNINNDYQPPEIAMVTASVPTDPDAAMNISLVGVERTVQFYVFMHFAEIQELKSNDTREFNIMYNNKHIYGPFRPLNFTTSSVFTPTEVVADANGQYIFSLQRTGNSTLPPLLNAMEIYSVNLLPQQETDRKEVDAMMNIKSAYGVNKIDWEGDPCVPLDYKWSGVNCTYVDNETPKIISLDLSTSGLTGEILEFISDLTSLEVLDLSNNSLTGSVPEFLANMETLKLINLSGNELNGSIPATLLDKERRGSITLSIEGNTGLCSSTSCATTKKKKKNTVIAPVAASLVSVFLIGAGIVTFLILKRKKRTKLGLNPNSGTGTTPLHSRSHHGFEPPVIAKNRKLTYIDVVKITNNFERVLGRGGFGVVYYGVLNNEPVAVKMLTESTALGYKQFKAEVELLLRVHHKDLTCLVGYCEEGDKMSLIYEFMANGDLKEHLSGKRGPSILTWEGRLRIAAESAQGLEYLHNGCKPQIVHRDIKTTNILLNEKFQAKLADFGLSRSFPLGTETHVSTIVAGTPGYLDPEYYRTNWLTEKSDVFSFGVVLLELVTNQPVIDMKREKSHIAEWVGLMLSRGDINSIVDPKLQGDFDPNTIWKVVETAMTCLNPSSSRRPTMTQVVMDLKECLNMEMARNMGSRMTDSTNDSSIELSMNFTTELNPGAR
B10: cyclic nucleotide-gated ion channel CNGC2 (protein, UniProt O65718 1-726)
chain: MPSHPNFIFRWIGLFSDKFRRQTTGIDENSNLQINGGDSSSSGSDETPVLSSVECYACTQVGVPAFHSTSCDQAHAPEWRASAGSSLVPIQEGSVPNPARTRFRRLKGPFGEVLDPRSKRVQRWNRALLLARGMALAVDPLFFYALSIGRTTGPACLYMDGAFAAVVTVLRTCLDAVHLWHVWLQFRLAYVSRESLVVGCGKLVWDPRAIASHYARSLTGFWFDVIVILPVPQAVFWLVVPKLIREEKVKLIMTILLLIFLFQFLPKIYHCICLMRRMQKVTGYIFGTIWWGFALNLIAYFIASHVAGGCWYVLAIQRVASCIRQQCMRTGNCNLSLACKEEVCYQFVSPTSTVGYPCLSGNLTSVVNKPMCLDSNGPFRYGIYRWALPVISSNSLAVKILYPIFWGLMTLSTFANDLEPTSNWLEVIFSIVMVLSGLLLFTLLIGNIQVFLHAVMAKKRKMQIRCRDMEWWMKRRQLPSRLRQRVRRFERQRWNALGGEDELELIHDLPPGLRRDIKRYLCFDLINKVPLFRGMDDLILDNICDRAKPRVFSKDEKIIREGDPVQRMIFIMRGRVKRIQSLSKGVLATSTLEPGGYLGDELLSWCLRRPFLDRLPPSSATFVCLENIEAFSLGSEDLRYITDHFRYKFANERLKRTARYYSSNWRTWAAVNIQMAWRRRRKRTRGENIGGSMSPVSENSIEGNSERRLLQYAAMFMSIRPHDHLE

The chains behind the UniProt entries cited, without tags or fusion partners.
UniProt Q9FIJ0: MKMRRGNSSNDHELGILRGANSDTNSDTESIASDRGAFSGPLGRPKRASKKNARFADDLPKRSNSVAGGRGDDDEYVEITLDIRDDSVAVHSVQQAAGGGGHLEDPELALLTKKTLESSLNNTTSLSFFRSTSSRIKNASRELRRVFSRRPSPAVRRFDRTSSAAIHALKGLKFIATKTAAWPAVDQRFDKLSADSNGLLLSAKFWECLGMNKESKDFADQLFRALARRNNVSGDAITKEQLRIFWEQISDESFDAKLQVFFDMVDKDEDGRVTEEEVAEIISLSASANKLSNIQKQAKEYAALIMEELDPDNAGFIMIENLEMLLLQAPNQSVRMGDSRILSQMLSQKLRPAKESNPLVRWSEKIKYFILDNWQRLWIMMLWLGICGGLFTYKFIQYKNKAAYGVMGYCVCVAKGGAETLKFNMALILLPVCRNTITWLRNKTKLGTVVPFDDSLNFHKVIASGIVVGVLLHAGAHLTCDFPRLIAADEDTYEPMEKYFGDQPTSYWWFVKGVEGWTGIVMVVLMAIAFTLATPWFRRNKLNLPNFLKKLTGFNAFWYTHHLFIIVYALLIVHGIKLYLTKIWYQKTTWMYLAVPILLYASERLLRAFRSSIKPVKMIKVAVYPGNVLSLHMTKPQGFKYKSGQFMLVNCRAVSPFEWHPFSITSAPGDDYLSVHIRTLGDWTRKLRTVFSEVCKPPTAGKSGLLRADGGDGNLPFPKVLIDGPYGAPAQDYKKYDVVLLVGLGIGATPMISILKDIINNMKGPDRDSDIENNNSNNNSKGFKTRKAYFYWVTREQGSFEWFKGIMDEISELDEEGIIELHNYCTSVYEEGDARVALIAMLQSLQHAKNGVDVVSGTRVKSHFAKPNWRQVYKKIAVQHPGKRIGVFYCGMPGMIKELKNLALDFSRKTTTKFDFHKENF

molecular target: 3×FLAG-tagged RBOHD (RESPIRATORY BURST OXIDASE HOMOLOG D) (Arabidopsis thaliana) (UniProt Q9FIJ0); experiment: affinity purification with mass spectrometry

Binder	binding
B1	binds
B2	binds
B3	binds
B4	binds
B5	binds
B6	binds
B7	binds
B8	binds
B9	binds
B10	binds
